# Reference: PubChem BioAssay AID504444 (National Center for Advancing Translational Sciences (NCATS), 2011)
# About 7,500 (2.1%) of roughly 360,000 compounds were called active. Inconclusive results, whose numbers are uncertain, are shown with a selection of clear calls. The call rests on the fitted dose curve; in most records, active means well fitted inhibition curve with a large enough effect; inconclusive means small, poorly fitted or top-dose-only effect, or effect the other way; inactive means flat fitted curve, though single readings scatter. Where the call is inconclusive, the potency comes from a doubtful curve fit. Peptide text beside a SMILES is read from it. * marks the point of attachment. OBn = c1ccc(CO*)cc1
# Assay: Nrf2 qHTS screen for inhibitors; further: nearly all actives have a fitted effect of over 60% in size
# Conditions: A549 ARE-Fluc reporter, luciferase luminescence, 18-24 h; series mostly up to 46 µM
# Method in brief: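 Quantitative HTS in A549 cells stably bearing an antioxidant response element-firefly luciferase construct. Inhibition of Nrf2-driven transcription was scored by luminescence after 18-24 h of compound exposure at 37 °C.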
# Potency means the concentration at half of the fitted maximal effect.
row,SMILES,Potency
1,CCc1c(C)c2ccc(OCC(=O)N(C)C)c(C)c2oc1=O,"inconclusive: 0.517 µM [falling, partial curve, poor fit]"
2,NC(=O)c1ccccc1NS(=O)(=O)Cc1ccccc1,inactive
3,CC(CC(=O)Nc1ccc(Cl)c([N+](=O)[O-])c1)c1ccccc1 (configuration not stated),"inconclusive: 29.1 µM [falling, single point]"
4,O=C(Nc1cccc(Cl)c1)c1cccc(Oc2ccc([N+](=O)[O-])cc2Cl)c1,active: 20.6 µM
5,CCOCCCNC(=O)C(Cc1ccccc1)NS(=O)(=O)c1ccc2c(c1)c(=O)n(C)c(=O)n2C (configuration not stated),"inconclusive: 16.4 µM [activator, single point]"
6,Cc1ccc(NC(=O)c2ccc(Cl)c(S(=O)(=O)N3CCCCC3)c2)nc1,active: 20.6 µM
7,CN1CCN(/N=C/c2ccc(N(C)c3ccccc3)cc2)CC1,inactive
8,CC(=O)N1c2ccc(S(=O)(=O)N3CCC(C(=O)Nc4cccc(F)c4)CC3)cc2CC1C (configuration not stated),active: 16.4 µM
9,O=C(Nc1cc(S(=O)(=O)N2CCOCC2)ccc1Cl)c1cc([N+](=O)[O-])ccc1Cl,"inconclusive: 25.9 µM [activator, single point]"
10,N#CC1=C(N)OC2=C(C(=O)CC(c3ccccc3)C2)C1c1ccoc1 (configuration not stated),"inconclusive: 6.51 µM [activator, single point]"
11,N/C(=N\OC(=O)COc1ccc(Cl)cc1Cl)c1ccccn1,"inconclusive: 1.03 µM [activator, full curve]"
12,CCOC(=O)N1CCN(S(=O)(=O)c2ccc(C)cc2)C1c1ccccc1 (configuration not stated),inactive
13,O=C(Nc1ccc2c(c1)OCO2)c1ccccc1,"inconclusive: 11.6 µM [activator, partial curve]"
14,CC1=NN(C(N)=S)C(=O)C1N=Nc1cccc(C)c1 (configuration not stated),"inconclusive: 29.1 µM [activator, single point]"
15,CC1CCN(C(=O)CSc2nnc(-c3cccs3)o2)CC1,"inconclusive: 18.4 µM [activator, partial curve, poor fit]"
16,CC(=O)Nc1ccc(N2C(=O)CSC2c2cccc(Br)c2)cc1 (configuration not stated),"inconclusive: 23.1 µM [falling, partial curve, poor fit]"
17,Cc1ccc(C(=O)OCC(=O)NC(=O)c2cccn2C)cc1[N+](=O)[O-],inactive
18,COc1ccc(N(C(=O)C(C)C)S(=O)(=O)c2cccs2)cc1,"inconclusive: 5.8 µM [falling, full curve, poor fit]"
19,CCC(=O)Nc1ccc(NC(=O)c2oc3ccccc3c2C)cc1,"inconclusive: 18.4 µM [falling, partial curve, poor fit]"
20,COc1ccc(Cl)cc1NC(=O)CN1CCN(Cc2ccccc2)CC1,"inconclusive: 6.51 µM [falling, partial curve]"
21,CCOc1ccc(OCC(=O)Nc2ccc(S(=O)(=O)Nc3cc(C)nc(C)n3)cc2)cc1,"inconclusive: 23.1 µM [falling, single point]"
22,COc1ccc(C2=NOC(C(=O)NCc3ccc(F)cc3)C2)cc1 (configuration not stated),inactive
23,O=C(O)C1=C[C@H](c2ccc(C(F)(F)F)cc2)C[C@H](OCc2ccc(CO)cc2)O1,"inconclusive: 13 µM [falling, partial curve, poor fit]"

row,SMILES,Potency
1,Oc1ccccc1CNc1ccc(OC(F)(F)F)cc1,"inconclusive: 23.1 µM [activator, single point]"
2,COc1ccccc1NC(=O)CCCCCN1C(=O)c2cccc3cccc(c23)C1=O,"inconclusive: 18.4 µM [falling, single point]"
3,Cc1ccc(NC(=O)Cn2c(=O)n(Cc3ccco3)c(=O)c3sc4ccccc4c32)cc1C,inactive
4,CCOc1ccc(CCNC(=O)c2cnc3c(-c4ccc(F)cc4)c(C)nn3c2C)cc1OCC,"inconclusive: 8.2 µM [activator, partial curve]"
5,CCN1/C(=C/c2cccc[n+]2C)Sc2ccc(OC)cc21,active: 5.8 µM
6,CN(C)CCNC(=O)c1cccc2nc3c(ccc4ccccc43)nc12,"inconclusive: 9.2 µM [falling, partial curve]"
7,C#CCNc1cc(-c2ccccc2)nc2ncnn12,"inconclusive: 16.4 µM [falling, partial curve]"
8,O=C(CCN1C(=O)C2C3C=CC(C4CC34)C2C1=O)Oc1cccc2cccnc12 (configuration not stated),inactive
9,Cc1ccc(NC(=S)N(Cc2ccc(Cl)cc2)Cc2ccc(C(=O)O)cc2)cc1Cl,"inconclusive: 1.84 µM [falling, partial curve]"
10,N=c1c(C(=O)NCc2ccco2)cc2c(=O)n3ccccc3nc2n1Cc1ccc(Cl)cc1,"inconclusive: 29.1 µM [falling, single point]"
11,CC1Cc2ccccc2N1CC(=O)NC(=O)NC(C)(C)C (configuration not stated),"inconclusive: 29.1 µM [falling, single point]"
12,Cc1ccc(OCC(=O)N2CCN(S(=O)(=O)c3ccc(Cl)s3)CC2)cc1C,"inconclusive: 25.9 µM [falling, single point]"
13,Cc1ccc(NS(=O)(=O)c2ccc(OCC(=O)NCC3CCCO3)cc2)cc1 (configuration not stated),"inconclusive: 8.2 µM [falling, partial curve, poor fit]"
14,Cc1nc2ccc(NC(=O)c3cccc(S(=O)(=O)N4CCOCC4)c3)cc2s1,active: 18.4 µM
15,Cc1c(Cl)cccc1Nc1nc(NCCO)c2ccccc2n1,inactive
16,O=C(Nc1nnc(-c2ccccc2)o1)c1ccc(Cl)cc1,"inconclusive: 32.6 µM [falling, single point]"
17,COC(=O)[C@H](Cc1ccccc1)NC(=O)[C@@H](N)CC(=O)OCc1ccccc1 (H-Asp(OBn)-Phe-OMe),"inconclusive: 29.1 µM [activator, single point]"
18,Cc1c(C)c2c(OCC(=O)N3CCC(C(N)=O)CC3)cc3c(c2oc1=O)CCC(C)(C)O3,"inconclusive: 9.2 µM [falling, partial curve]"
19,CCCOCCOC(=O)c1[nH]c2c(c1C)C(=O)CC(c1cc(OC)ccc1OC)C2 (configuration not stated),inactive
20,CCOc1ccc(-n2c(C)c(C(=O)OC)c3cc(O)ccc32)cc1,inactive
21,CCOc1ccc(CCNC(=O)c2cccc(C#N)c2)cc1OCC,"inconclusive: 29.1 µM [falling, single point]"
22,COc1ccc(-c2cc(C(F)(F)F)nc(SCCC(=O)Nc3cc(C)ccc3O)n2)cc1,"inconclusive: 29.1 µM [falling, single point]"
23,CC(C)C(=O)Nc1cccc(S(=O)(=O)c2cccc(NC(=O)C(C)C)c2)c1,active: 20.6 µM

# Looked up above:
# Entry of Cc1ccc(OCC(=O)N2CCN(S(=O)(=O)c3ccc(Cl)s3)CC2)cc1C under Potency: inconclusive: 25.9 µM [falling, single point]
# Entry of Cc1ccc(C(=O)OCC(=O)NC(=O)c2cccn2C)cc1[N+](=O)[O-] under Potency: inactive
# Entry of CCOc1ccc(CCNC(=O)c2cnc3c(-c4ccc(F)cc4)c(C)nn3c2C)cc1OCC under Potency: inconclusive: 8.2 µM [activator, partial curve]

# (next part)

row,SMILES,Potency
1,O=C(NCc1ccccc1)c1cc2nc(C3CC3)cc(C(F)(F)F)n2n1,"inconclusive: 9.2 µM [falling, partial curve, poor fit]"
2,N#Cc1c(NC(=O)CSc2ncnc3c2cnn3-c2ccccc2Cl)sc2c1CCCC2,"inconclusive: 29.1 µM [falling, single point]"
3,O=C(CNC(=O)c1cc2c(n(-c3ccccc3)c1=O)CCCC2=O)c1ccccc1,inactive
4,CCOc1ccc(CCNC(c2cccc(Cl)c2)c2nnc(-c3ccccc3)o2)cc1OCC (configuration not stated),"inconclusive: 29.1 µM [falling, single point]"
5,Cc1ccc(N2N=C(c3ccc(F)cc3)CC2c2ccco2)cc1 (configuration not stated),"inconclusive: 29.1 µM [activator, single point]"
6,CCOCCCNC(=O)CCc1nnc2n(CCC(C)C)c(=O)c3ccccc3n12,"inconclusive: 1.46 µM [activator, full curve, poor fit]"
7,CCn1c(COc2ccc(OC)cc2)nnc1SCC(=O)Nc1cc(OC)ccc1OC,"inconclusive: 29.1 µM [falling, single point]"
8,N#Cc1c(N)nc(N)nc1Nc1ccc(Br)cc1,"inconclusive: 18.4 µM [activator, partial curve]"
9,COc1ccc(-c2cc(C(=O)N3CCCC(C(F)(F)F)C3)c3ccccc3n2)cc1 (configuration not stated),inactive
10,O=C(O)c1cc(N=Cc2c(O)c3ccccc3oc2=O)ccc1O,"inconclusive: 25.9 µM [falling, single point]"
11,CCCCn1c(N)c(N(CCOC)C(=O)c2cc(-c3ccc(OC)c(OC)c3)nc3ccccc23)c(=O)[nH]c1=O,inactive
12,O=C(NNC(=O)C1C2C=CC(C2)C1C(=O)O)c1ccccc1 (configuration not stated),"inconclusive: 13 µM [activator, partial curve]"
13,CC(C)N=C1NN=C(c2ccc(F)cc2)CS1,"inconclusive: 3.66 µM [activator, full curve]"
14,CC(C)(C)c1ccc(-n2ncc3c2CCCC3NC(=O)CN2CCCC2=O)cc1 (configuration not stated),"inconclusive: 10.3 µM [falling, partial curve, poor fit]"
15,CCCC1OC(c2cc3c(cc2Cl)OCO3)OCC1CC (configuration not stated),"inconclusive: 25.9 µM [activator, single point]"
16,CCn1c(=O)c(C(=O)Nc2ccc(C(C)=O)cc2)nc2ccccc21,inactive
17,Fc1ccc(NC(=S)NNc2ncc(C(F)(F)F)cc2Cl)c(F)c1,"inconclusive: 18.4 µM [falling, single point]"
18,CCOc1ccccc1N(C)C(=O)Cn1ncc2c([nH]c3ccccc32)c1=O,inactive
19,CCOc1ccc2nc(SCc3ccccc3C#N)sc2c1,"inconclusive: 10.3 µM [activator, partial curve, poor fit]"
20,CCOC(=O)C1(Cc2cccc(OC)c2)CCCN(C(=O)CCSC)C1 (configuration not stated),"inconclusive: 7.31 µM [activator, partial curve]"
21,Cc1ccc(SCc2ccc(C(=O)Nc3cccc([N+](=O)[O-])c3C)cc2)cc1,"inconclusive: 25.9 µM [falling, single point]"
